{
  "source": "patent US20250154215A1",
  "about": "“PHARMACEUTICAL COMPOSITION FOR TREATING COLITIS OR COLORECTAL CANCER COMPRISING COLON-TARGETED S100A8/A9-DERIVED SPECIFIC PEPTIDE” (Industry-University Cooperation Foundation Hanyang …, priority 2023, published 2025)",
  "key": {"[1]": {"test_system": "S100A8 or A9-TLR4 (or RAGE) interaction", "assay": "Co-IP of endogenous S100A8 or A9 with TLR4 or RAGE in THP-1", "format": "cell-based, human", "settings": "THP-1, NLRP3 inflammasome inducer LPS/ATP"}, "NLPR3-ASC interaction": {"test_system": "NLPR3-ASC interaction", "assay": "Co-IP of NLRP3-ASC complex in ATP-stimulated LPS-primed BMDMs", "format": "cell-based, mouse", "settings": "0.1 μM"}, "[2]": {"test_system": "S100A8 or A9-TLR4 (or RAGE) interaction", "assay": "Co-IP of endogenous S100A8 or A9 with TLR4 or RAGE in BMDMs", "format": "cell-based, mouse", "settings": "NLRP3 inflammasome inducer LPS/ATP"}},
  "note": "Part of at least one peptide drawing is inferred or uncertain, most often the ends. No end group written: not given here.",
  "data": [
    {"sequence": "FLVIKGGAHKSHKGGITIITFGGGHHGG [S100A8/A9 peptide]", "values": [
      {"measurement": "interaction of S100 with TLR4 and RAGE", "setting": "[1]", "result": "higher inhibitory activity"},
      {"measurement": "NLPR3-ASC interaction", "setting": "NLPR3-ASC interaction", "result": "effectively inhibits"},
      {"measurement": "interaction of S100 with TLR4 and RAGE", "setting": "[2]", "result": "higher inhibitory activity"}
    ]}
  ]
}
